The test deals with dROS1 (Sevenless) full extracellular region, construct 1-9 (D. melanogaster) (UniProt P13368). The test is described as follows: SPR; BIAcore T200; dROS1 constructs covalently coupled (NHS/EDC) to a CM5 chip, BOSS ECR proteins flowed over at 10 µL/min for 180 s; 20 mM HEPES pH 7.5, 100 mM NaCl; plateau RU against BOSS concentration fitted to a single-site specific binding model; both purified. On the technique in general: In SPR one partner is held on a chip, and binding of the other changes the refractive index at the surface.

The chains behind the UniProt entries cited, without tags or fusion partners. Where a name states a change or a piece, a line headed by the entry shows the natural chain unless it says otherwise. Residues count along the entry.
UniProt P13368, residues 126-2113: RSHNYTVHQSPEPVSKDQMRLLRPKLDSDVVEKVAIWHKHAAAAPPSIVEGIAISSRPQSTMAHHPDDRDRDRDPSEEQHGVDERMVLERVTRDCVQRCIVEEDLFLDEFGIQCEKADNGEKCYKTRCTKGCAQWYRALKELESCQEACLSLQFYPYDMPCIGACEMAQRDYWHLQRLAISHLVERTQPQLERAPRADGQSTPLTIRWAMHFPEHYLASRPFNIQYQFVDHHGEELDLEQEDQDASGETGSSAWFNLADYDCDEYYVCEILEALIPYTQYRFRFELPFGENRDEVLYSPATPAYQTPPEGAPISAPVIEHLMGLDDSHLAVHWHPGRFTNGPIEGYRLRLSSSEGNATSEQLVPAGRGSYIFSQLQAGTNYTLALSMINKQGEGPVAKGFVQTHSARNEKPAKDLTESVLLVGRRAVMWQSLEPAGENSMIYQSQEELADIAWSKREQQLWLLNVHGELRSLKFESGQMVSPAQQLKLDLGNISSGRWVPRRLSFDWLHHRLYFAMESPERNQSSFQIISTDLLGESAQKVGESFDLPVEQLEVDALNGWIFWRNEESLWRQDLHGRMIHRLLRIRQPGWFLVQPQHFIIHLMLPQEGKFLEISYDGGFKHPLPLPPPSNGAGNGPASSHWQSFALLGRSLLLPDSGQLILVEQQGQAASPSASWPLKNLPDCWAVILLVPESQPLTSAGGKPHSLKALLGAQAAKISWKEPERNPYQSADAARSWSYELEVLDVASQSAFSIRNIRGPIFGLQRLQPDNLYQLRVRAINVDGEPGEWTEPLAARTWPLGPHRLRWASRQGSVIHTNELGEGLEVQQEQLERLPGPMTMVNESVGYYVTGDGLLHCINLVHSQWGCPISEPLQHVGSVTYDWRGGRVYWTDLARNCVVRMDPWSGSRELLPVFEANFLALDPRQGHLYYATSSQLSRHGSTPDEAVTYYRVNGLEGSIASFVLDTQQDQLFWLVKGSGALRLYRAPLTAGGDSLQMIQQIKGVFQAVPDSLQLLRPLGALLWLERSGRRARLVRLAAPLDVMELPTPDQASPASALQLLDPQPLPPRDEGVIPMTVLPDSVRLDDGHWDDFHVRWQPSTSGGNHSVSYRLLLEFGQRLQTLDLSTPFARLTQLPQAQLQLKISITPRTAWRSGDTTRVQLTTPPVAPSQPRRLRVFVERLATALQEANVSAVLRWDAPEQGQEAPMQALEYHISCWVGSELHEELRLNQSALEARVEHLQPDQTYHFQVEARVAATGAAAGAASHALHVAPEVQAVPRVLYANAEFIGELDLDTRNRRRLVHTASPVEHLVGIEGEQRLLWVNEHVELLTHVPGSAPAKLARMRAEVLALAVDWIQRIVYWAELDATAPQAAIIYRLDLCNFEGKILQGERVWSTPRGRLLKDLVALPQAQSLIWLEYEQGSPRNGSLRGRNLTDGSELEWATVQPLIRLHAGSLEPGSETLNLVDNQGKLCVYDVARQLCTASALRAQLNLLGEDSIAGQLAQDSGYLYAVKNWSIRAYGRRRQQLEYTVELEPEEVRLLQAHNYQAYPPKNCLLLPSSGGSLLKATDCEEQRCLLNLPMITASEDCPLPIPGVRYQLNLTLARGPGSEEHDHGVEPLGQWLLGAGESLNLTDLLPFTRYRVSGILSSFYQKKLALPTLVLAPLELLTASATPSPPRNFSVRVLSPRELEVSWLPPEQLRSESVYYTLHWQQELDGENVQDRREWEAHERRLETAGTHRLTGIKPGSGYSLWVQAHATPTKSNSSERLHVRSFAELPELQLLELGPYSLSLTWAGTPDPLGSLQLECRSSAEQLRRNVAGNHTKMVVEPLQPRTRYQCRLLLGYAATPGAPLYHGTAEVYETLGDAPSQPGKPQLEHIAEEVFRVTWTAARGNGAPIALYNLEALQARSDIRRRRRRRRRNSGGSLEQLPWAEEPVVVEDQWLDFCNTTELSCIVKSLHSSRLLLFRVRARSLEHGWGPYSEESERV

We go through one molecule from publication PMC11743138, “Structural basis for the interaction between the Drosophila RTK Sevenless (dROS1) and the GPCR BOSS” (Nature Communications, 2025).

Results are given in words; binding and its absence hold for the method and conditions named. Where a sequence is shown, tags or fusion partners need not be part of it.

B1: BOSSDEQ extracellular region (L489 and L491 of LEL changed to DEQ), His tag cleaved (domain or fragment, UniProt P22815 102-510)
chain: GTTASLVPEICLNGLQLTVNSADEGTVIRKQEEFVKILEGDVVLSVLTKDPDSALFVINRVNQANLIMADFEIGIRAISIDNASLAENLLIQEVQFLQQCTTYSMGIFVDWELYKQLESVIKDLEYNIWPIPGTRAHLFPKVAHLLHQMPWGEKIASVEIATETLEMYNEFMEAARQEHMCLMHFKSDDNVYIMFGNKLASHFKENGTLFSVPTDRTDDEFLADLPNRAFVLMENEIDLSTAVELDATPTALDEILIGKSVLPSRVLSFAGSIIDLMNWLRGSLSKHCKRGEEHDLYVLESCFNFLNFIEDWRTSEYRQAHDTAEILSLLLMRKLGTAMNFQMYQKKVLTLDKITGESRTELREIASQNFVTNVTTYYHYNRDNHTSDEQKTKFGQVFNCQYSAGDNRR
On to B1, for which the binding entry was “no binding”.
